Laboratory results published in the supplement of paper PMC12819154, “High-throughput peptide-centric local stability assay extends protein–ligand identification to membrane proteins, tissues and bacteria” (Nature Structural & Molecular Biology, 2025).
The entries are a selection whose mix differs from that of the whole data set. Most values lie at the level of the controls, where differences are scatter.

Chains of the proteins cited; added tags and fusions are not shown. Lines headed by an entry give the natural chain unless they say otherwise; changes in a name come on top.
UniProt P19926: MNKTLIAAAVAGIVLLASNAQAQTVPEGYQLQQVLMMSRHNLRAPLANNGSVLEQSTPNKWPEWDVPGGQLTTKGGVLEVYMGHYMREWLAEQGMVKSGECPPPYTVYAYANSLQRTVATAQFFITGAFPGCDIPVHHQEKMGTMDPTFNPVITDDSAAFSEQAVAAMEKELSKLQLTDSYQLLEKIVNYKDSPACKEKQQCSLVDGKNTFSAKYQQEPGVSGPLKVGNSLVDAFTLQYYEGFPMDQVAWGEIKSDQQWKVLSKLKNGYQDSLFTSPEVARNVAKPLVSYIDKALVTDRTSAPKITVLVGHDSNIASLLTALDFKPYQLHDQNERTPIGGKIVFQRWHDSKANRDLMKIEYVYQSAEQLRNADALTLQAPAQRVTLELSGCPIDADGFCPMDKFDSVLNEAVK
UniProt P28905: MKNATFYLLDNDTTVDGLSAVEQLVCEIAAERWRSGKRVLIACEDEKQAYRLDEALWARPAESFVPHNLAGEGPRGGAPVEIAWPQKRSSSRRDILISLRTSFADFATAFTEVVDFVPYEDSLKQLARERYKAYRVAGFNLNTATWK
UniProt P27302: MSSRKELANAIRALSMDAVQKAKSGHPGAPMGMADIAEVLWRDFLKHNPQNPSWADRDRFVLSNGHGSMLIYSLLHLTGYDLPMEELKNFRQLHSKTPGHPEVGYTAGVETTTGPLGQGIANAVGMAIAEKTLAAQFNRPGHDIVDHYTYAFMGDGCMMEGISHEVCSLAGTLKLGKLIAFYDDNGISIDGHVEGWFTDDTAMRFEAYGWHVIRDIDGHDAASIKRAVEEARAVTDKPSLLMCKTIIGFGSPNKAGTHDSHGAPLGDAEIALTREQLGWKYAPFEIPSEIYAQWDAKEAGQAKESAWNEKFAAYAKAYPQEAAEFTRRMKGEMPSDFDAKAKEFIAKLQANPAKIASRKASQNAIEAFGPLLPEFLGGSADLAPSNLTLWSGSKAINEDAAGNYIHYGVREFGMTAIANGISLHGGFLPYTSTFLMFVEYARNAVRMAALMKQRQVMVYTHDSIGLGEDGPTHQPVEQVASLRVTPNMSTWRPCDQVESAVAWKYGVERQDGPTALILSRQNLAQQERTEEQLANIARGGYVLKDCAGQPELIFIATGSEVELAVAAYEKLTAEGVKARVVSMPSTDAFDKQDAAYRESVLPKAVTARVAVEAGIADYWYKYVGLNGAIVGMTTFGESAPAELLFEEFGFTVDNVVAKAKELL
UniProt P26608: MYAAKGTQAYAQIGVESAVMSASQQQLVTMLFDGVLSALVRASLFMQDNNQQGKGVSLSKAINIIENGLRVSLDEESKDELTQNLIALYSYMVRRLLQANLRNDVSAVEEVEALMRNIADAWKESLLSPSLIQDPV
UniProt P29012: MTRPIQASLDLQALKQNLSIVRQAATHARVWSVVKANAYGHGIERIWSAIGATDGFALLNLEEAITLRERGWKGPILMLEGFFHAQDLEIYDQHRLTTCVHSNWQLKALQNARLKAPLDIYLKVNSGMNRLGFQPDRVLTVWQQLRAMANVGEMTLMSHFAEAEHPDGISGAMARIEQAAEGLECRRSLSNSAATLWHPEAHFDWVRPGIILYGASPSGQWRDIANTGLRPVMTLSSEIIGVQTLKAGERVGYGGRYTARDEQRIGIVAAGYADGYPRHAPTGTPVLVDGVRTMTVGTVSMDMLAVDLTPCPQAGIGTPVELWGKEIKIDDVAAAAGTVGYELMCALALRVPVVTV
UniProt P24183, whole entry: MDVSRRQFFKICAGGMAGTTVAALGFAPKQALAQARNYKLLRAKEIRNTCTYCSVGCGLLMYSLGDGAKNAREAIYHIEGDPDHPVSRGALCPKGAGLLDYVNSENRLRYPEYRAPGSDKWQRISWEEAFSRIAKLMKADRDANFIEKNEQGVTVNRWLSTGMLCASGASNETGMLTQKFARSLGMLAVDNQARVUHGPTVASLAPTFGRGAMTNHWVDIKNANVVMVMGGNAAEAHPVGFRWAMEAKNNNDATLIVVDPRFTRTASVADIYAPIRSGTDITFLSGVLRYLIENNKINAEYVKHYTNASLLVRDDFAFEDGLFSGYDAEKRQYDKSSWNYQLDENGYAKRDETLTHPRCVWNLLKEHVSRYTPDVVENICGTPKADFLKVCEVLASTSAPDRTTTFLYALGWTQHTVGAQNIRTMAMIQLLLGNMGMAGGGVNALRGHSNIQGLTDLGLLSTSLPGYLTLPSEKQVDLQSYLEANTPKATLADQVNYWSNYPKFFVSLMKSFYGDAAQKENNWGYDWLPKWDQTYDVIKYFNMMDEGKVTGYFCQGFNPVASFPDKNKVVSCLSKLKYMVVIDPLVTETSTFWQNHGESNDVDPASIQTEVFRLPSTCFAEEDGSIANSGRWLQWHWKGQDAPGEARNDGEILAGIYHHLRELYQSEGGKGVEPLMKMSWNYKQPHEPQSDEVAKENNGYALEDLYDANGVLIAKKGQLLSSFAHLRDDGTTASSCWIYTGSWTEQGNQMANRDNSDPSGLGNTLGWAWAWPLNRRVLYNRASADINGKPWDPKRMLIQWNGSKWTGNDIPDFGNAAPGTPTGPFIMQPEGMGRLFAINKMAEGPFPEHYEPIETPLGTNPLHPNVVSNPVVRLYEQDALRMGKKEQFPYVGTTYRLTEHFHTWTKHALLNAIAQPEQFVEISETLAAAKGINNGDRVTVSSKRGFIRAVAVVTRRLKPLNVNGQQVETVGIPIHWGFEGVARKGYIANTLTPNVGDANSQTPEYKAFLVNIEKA
UniProt P16431: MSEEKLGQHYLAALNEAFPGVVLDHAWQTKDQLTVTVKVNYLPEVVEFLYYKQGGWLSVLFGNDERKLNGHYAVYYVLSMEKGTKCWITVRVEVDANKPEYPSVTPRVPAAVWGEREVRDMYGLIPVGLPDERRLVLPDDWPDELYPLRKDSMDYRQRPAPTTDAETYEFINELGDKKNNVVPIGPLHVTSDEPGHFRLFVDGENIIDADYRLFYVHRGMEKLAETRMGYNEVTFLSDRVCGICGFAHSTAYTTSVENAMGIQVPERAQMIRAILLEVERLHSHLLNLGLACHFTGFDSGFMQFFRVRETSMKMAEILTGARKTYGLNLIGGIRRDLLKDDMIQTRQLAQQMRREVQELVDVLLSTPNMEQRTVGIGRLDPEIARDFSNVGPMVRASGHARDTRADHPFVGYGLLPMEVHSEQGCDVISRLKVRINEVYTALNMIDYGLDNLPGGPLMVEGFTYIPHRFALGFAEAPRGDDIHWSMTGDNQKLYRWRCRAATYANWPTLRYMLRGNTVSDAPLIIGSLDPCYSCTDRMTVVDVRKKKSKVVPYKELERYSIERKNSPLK
UniProt P21189: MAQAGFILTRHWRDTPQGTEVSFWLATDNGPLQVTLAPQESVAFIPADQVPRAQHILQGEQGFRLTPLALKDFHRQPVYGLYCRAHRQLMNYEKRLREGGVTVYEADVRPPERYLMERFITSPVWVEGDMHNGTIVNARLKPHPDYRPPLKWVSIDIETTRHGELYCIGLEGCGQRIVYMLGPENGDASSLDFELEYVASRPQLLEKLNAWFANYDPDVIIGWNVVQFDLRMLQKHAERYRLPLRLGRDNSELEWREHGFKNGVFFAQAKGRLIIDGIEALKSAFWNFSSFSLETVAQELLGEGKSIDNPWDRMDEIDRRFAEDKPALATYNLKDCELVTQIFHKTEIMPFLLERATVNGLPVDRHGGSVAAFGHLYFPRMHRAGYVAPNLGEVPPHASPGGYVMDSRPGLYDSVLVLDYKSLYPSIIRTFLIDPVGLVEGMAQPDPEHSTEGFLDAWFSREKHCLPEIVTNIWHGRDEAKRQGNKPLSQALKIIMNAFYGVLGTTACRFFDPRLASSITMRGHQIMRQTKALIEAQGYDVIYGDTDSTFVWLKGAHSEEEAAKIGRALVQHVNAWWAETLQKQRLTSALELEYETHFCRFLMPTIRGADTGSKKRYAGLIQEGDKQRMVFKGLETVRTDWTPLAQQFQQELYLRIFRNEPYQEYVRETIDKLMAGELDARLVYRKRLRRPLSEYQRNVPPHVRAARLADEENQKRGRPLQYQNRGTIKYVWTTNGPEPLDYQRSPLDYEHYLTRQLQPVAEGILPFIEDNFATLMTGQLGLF
UniProt P30131: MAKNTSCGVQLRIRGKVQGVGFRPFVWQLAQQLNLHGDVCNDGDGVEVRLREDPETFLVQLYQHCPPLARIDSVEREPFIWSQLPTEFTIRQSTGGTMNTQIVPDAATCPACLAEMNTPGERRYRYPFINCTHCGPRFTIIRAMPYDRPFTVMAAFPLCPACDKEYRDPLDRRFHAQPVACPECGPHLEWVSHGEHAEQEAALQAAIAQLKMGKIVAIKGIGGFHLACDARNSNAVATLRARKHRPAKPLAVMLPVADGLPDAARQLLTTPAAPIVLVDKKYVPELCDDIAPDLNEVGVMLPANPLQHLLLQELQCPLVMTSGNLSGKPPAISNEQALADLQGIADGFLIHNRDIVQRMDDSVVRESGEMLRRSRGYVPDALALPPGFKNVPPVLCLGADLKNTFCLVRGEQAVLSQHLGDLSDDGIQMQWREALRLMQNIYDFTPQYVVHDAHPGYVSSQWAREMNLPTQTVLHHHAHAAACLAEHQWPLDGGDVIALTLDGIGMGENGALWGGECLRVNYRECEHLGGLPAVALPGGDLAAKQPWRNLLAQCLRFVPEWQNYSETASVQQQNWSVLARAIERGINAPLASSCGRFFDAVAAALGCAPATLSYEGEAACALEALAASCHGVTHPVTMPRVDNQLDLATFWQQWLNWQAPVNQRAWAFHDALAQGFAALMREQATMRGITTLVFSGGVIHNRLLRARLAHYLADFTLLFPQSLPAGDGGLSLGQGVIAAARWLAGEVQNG
UniProt P28915: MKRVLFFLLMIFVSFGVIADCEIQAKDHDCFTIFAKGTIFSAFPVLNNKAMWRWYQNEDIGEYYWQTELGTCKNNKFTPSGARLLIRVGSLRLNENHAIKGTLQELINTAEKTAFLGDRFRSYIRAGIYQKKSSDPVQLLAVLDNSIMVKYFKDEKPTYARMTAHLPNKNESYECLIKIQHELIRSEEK
UniProt P30852: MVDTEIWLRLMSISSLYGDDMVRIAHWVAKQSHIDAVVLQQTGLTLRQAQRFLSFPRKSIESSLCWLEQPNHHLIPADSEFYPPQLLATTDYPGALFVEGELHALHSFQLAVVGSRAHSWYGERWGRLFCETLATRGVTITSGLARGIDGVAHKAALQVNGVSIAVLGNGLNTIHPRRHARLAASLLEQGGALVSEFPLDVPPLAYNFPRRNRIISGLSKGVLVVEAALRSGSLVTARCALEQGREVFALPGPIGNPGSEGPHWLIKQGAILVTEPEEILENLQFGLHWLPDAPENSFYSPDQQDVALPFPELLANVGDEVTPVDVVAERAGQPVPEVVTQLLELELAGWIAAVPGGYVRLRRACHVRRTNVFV
UniProt P23873: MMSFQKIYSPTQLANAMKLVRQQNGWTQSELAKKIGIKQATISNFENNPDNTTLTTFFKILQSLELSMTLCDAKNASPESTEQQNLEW
UniProt P29744: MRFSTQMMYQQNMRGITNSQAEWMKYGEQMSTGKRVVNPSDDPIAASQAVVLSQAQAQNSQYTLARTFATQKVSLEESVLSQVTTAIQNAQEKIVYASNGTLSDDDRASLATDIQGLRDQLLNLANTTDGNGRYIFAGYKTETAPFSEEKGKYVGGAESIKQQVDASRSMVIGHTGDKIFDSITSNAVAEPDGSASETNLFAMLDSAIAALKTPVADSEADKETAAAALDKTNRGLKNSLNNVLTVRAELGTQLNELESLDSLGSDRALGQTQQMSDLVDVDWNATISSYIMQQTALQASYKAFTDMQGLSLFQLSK
UniProt P21829: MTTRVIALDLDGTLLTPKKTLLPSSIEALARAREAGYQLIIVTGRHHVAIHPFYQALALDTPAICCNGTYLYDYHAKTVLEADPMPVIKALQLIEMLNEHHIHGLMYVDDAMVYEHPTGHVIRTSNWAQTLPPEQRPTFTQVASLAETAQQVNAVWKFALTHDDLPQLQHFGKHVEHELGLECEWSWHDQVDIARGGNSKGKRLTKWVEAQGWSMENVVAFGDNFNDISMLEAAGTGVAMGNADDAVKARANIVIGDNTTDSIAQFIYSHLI
UniProt P24554: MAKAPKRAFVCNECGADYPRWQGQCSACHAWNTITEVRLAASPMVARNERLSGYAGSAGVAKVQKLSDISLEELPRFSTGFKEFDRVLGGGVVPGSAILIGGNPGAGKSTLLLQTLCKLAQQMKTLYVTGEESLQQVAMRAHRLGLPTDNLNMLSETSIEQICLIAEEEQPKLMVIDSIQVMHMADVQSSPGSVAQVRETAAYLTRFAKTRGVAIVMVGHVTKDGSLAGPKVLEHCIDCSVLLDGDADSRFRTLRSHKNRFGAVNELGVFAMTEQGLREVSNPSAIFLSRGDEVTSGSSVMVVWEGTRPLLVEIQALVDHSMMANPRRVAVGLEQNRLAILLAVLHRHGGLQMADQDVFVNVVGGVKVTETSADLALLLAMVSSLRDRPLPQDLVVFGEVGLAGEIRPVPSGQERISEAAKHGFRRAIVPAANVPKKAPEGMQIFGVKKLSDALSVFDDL

Compound: Nc1ncnc2c1ncn2[C@@H]1O[C@H](COP(=O)(O)OP(=O)(O)OP(=O)(O)O)[C@@H](O)[C@H]1O [adenosine 5'-triphosphate]
Assay: log2 fold change of tryptic peptide abundance, ligand vs vehicle (limited proteolysis) (log2 ratio); higher = more trypsin-susceptible (destabilized)
Settings: ligand concentration: 5 mM; sample: E. coli desalted lysate; replicate design: treated before aliquoting
Protocol: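 HT-PELSA: desalted E. coli K-12 BW25113 lysate (with 12 mM MgCl2) incubated with 5 mM ATP (pH 7) or water for 30 min at 25 C, then a 4 min trypsin pulse at 22 C. Peptides were quantified by DIA-MS (4 replicates). Value is the peptide log2 fold change (treated/control); negative = stabilized. Scale: negative = ligand-stabilized region.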
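Also: lysate desalted by size exclusion to strip endogenous ATP, peptide intensities built from DIA-NN precursor signals, and peptides missing any value discarded before comparison.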

Target	log2 fold change
UniProt P19926 (peptide sequence: YQQEPGVSGPLK, peptide start residue: 215)	-0.278
UniProt P27128 (peptide sequence: NTALLKPNNSNQLR, peptide start residue: 297)	-0.422
UniProt P21179 (peptide sequence: SADLLAILK, peptide start residue: 613)	0.362
UniProt P27111 (peptide sequence: CAVVGGNESR, peptide start residue: 290)	1.07
UniProt P28905 (peptide sequence: VLIACEDEK, peptide start residue: 39)	0.319
UniProt P17802 (peptide sequence: STAGAILSLSLGK, peptide start residue: 120)	0.817
UniProt P27250 (peptide sequence: VVALGSAAQDK, peptide start residue: 69)	-0.108
UniProt P22787 (peptide sequence: TVVPGESSATVK, peptide start residue: 396)	-0.203
UniProt P30130 (peptide sequence: VENQTGVR, peptide start residue: 731)	-0.35
UniProt P30177 (peptide sequence: DPETTAQWIER, peptide start residue: 270)	0.958
UniProt P25397 (peptide sequence: TIPGLIANMQR, peptide start residue: 112)	-0.379
UniProt P26459 (peptide sequence: NLMAETYPR, peptide start residue: 309)	0.00571
UniProt P25728 (peptide sequence: HLIDDKRPVPELPEK, peptide start residue: 95)	-0.202
UniProt P23524 (peptide sequence: IVIAPDSYK, peptide start residue: 3)	-0.274
UniProt P30138 (peptide sequence: LLSGIETPAGELR, peptide start residue: 208)	-0.275
UniProt P27302 (peptide sequence: LTAEGVKAR, peptide start residue: 571)	-0.538
UniProt P26608 (peptide sequence: RLLQANLR, peptide start residue: 95)	0.0814
UniProt P28912 (peptide sequence: HIAINILTNDKVFK, peptide start residue: 338)	0.467
UniProt P21517 (peptide sequence: EAEQDHVYYHHAAGQEIILR, peptide start residue: 140)	0.512
UniProt P25718 (peptide sequence: HKDGMAEIGTFHGGDLR, peptide start residue: 213)	-0.775

Target	log2 fold change
UniProt P20099 (peptide sequence: VSWDEALDLIHQQHKR, peptide start residue: 85)	-0.245
UniProt P19934 (peptide sequence: KQAEEAAKQAELK, peptide start residue: 118)	-1.31
UniProt P29012 (peptide sequence: LTTCVHSNWQLK, peptide start residue: 96)	-0.326
UniProt P24183 (peptide sequence: TASVADIYAPIR, peptide start residue: 265)	-0.839
UniProt P25526 (peptide sequence: LMTLEQGKPLAEAK, peptide start residue: 93)	-0.327
UniProt P19317 (peptide sequence: TTSLLLFEHVHAESR, peptide start residue: 64)	-0.444
UniProt P16431 (peptide sequence: GDDIHWSMTGDNQK, peptide start residue: 479)	-0.704
UniProt P25396 (peptide sequence: AVLMKAEDKE, peptide start residue: 321)	-0.264
UniProt P21189 (peptide sequence: ETIDKLMAGELDAR, peptide start residue: 668)	0.339
UniProt P30131 (peptide sequence: NLLAQCLR, peptide start residue: 549)	0.109
UniProt P22256 (peptide sequence: VWDVEGR, peptide start residue: 35)	-0.418
UniProt P28915 (peptide sequence: LNENHAIK, peptide start residue: 93)	0.607
UniProt P26647 (peptide sequence: AHGTIAEVVNHFK, peptide start residue: 124)	-0.272
UniProt P30852 (peptide sequence: GVTITSGLAR, peptide start residue: 137)	0.608
UniProt P23873 (peptide sequence: IYSPTQLANAMK, peptide start residue: 7)	0.222
UniProt P29744 (peptide sequence: NSLNNVLTVR, peptide start residue: 238)	-0.0561
UniProt P21829 (peptide sequence: VIALDLDGTLLTPKK, peptide start residue: 5)	0.343
UniProt P30847 (peptide sequence: GELEAIQDGVR, peptide start residue: 261)	0.432
UniProt P16433 (peptide sequence: LNEIVSHLNHVVEEAR, peptide start residue: 238)	-0.71
UniProt P24554 (peptide sequence: TRGVAIVMVGHVTK, peptide start residue: 210)	0.515

A stretch taken from the entries so far, as a working copy:
Target	log2 fold change
UniProt P20099 (peptide sequence: VSWDEALDLIHQQHKR, peptide start residue: 85)	-0.245
UniProt P19934 (peptide sequence: KQAEEAAKQAELK, peptide start residue: 118)	-1.31
UniProt P29012 (peptide sequence: LTTCVHSNWQLK, peptide start residue: 96)	-0.326
